From the supplement of paper PMC12823440, “Inhibitors supercharge kinase turnover through native proteolytic circuits” (Nature, 2025)
Counter-ions that a name gives are not always drawn. The list shows a part of the results. Hit calls seldom repeat between salt and free forms of one compound.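 Kinases were expressed as nanoluciferase fusions in K562 cells and luminescence was read every 4 h between 2 and 18 h as percent of control, DMSO set to 100% and a positive control to 0%. A time point counts as decreased when the signal drops significantly (2 sigma). The hit call is the authors' own, does not follow from the count of time points alone, and its rule is not shown.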

Chains of the proteins cited; added tags and fusions are not shown. Lines headed by an entry give the natural chain unless they say otherwise; changes in a name come on top.
UniProt P00519, whole entry: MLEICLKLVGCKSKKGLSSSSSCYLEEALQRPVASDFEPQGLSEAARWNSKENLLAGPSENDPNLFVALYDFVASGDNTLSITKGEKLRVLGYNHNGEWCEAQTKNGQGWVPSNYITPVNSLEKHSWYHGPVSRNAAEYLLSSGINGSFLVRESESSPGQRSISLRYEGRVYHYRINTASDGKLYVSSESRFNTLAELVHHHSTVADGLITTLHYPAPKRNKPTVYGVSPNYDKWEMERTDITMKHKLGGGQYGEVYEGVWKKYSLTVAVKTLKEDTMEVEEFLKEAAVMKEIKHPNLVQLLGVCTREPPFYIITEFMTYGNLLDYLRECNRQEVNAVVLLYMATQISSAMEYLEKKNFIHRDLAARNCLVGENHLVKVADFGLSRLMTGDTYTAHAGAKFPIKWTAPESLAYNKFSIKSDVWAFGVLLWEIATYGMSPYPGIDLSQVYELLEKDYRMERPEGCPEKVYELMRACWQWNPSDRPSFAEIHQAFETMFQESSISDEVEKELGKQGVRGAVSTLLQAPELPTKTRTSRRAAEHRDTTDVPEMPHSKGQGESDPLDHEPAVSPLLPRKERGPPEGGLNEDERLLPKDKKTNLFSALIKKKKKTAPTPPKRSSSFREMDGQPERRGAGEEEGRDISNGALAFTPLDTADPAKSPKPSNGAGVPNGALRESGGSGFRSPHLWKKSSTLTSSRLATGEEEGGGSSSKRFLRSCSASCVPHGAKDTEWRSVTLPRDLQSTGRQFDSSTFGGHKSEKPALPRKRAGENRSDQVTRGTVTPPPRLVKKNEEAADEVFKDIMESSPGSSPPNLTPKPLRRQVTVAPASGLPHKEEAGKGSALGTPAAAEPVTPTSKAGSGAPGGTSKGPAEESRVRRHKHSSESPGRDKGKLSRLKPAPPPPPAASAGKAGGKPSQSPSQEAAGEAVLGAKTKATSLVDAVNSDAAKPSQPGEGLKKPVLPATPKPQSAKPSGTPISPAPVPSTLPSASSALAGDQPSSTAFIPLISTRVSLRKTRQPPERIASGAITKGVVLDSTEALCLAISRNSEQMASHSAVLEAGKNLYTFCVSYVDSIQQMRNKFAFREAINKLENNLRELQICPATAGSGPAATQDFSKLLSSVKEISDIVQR
UniProt P10398: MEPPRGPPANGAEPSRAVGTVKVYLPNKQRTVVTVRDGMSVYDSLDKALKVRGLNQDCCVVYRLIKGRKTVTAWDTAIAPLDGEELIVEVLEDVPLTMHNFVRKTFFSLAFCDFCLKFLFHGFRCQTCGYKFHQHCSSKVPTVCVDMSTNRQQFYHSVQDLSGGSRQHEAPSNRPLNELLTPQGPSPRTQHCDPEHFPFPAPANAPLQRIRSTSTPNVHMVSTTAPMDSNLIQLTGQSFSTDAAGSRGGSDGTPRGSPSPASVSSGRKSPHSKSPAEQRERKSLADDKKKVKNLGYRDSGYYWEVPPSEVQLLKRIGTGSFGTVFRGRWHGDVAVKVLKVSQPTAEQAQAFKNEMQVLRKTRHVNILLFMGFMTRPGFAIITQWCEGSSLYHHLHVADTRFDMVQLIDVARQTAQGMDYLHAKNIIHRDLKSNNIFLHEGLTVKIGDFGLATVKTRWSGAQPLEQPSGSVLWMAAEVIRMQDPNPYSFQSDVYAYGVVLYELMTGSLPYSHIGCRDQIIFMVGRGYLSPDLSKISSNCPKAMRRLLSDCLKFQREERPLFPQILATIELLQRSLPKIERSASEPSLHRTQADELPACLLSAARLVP
UniProt Q96GD4, whole entry: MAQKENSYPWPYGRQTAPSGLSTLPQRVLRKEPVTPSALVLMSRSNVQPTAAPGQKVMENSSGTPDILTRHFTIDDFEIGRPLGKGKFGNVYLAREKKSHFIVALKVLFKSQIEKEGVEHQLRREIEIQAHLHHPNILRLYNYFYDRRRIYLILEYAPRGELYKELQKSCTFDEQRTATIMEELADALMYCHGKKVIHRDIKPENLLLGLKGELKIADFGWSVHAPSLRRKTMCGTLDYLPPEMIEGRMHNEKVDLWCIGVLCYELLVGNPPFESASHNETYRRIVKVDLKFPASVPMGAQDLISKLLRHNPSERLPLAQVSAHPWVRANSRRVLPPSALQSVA
UniProt Q9UQB9: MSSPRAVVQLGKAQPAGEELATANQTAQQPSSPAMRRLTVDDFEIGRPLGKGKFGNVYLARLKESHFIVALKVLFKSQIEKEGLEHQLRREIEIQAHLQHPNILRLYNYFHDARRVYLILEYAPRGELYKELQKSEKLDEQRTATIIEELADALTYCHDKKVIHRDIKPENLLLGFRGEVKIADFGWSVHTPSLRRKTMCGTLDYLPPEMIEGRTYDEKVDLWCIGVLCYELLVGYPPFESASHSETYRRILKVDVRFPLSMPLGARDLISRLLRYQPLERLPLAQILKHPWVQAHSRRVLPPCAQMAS
UniProt P51813: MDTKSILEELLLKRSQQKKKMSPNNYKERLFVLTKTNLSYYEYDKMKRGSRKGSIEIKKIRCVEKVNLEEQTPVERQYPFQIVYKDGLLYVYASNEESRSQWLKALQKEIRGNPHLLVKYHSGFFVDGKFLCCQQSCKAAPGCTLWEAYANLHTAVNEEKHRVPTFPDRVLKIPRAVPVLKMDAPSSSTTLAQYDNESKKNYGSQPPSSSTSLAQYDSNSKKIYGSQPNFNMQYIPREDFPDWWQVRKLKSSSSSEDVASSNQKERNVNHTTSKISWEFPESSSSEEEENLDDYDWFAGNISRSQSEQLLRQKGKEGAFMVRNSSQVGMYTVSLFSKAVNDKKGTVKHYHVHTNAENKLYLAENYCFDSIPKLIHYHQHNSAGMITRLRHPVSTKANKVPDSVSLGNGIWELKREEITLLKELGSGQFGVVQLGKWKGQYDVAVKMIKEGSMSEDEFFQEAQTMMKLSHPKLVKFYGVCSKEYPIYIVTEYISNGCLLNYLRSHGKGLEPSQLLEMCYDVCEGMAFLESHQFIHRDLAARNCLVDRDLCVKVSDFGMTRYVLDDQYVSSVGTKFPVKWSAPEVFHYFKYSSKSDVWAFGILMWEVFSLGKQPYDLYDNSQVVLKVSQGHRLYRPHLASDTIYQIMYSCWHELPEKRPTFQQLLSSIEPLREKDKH
UniProt Q06187: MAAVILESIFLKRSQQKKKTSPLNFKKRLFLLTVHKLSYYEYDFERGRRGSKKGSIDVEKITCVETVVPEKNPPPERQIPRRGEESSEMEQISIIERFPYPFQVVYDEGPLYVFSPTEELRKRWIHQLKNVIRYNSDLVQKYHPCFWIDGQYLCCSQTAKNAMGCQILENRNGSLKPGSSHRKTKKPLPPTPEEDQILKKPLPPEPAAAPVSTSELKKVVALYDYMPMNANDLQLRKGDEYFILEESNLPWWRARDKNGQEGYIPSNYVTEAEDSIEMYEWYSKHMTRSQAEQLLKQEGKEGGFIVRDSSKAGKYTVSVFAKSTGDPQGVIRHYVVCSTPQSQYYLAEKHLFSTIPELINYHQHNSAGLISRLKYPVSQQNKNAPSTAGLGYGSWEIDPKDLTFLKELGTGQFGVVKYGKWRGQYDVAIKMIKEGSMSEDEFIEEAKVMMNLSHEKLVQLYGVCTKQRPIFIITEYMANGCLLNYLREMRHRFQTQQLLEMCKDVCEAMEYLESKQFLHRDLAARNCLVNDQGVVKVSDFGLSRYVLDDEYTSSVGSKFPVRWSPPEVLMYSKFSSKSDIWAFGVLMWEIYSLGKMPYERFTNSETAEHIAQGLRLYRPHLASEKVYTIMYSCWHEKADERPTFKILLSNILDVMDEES
UniProt Q9UQM7, whole entry: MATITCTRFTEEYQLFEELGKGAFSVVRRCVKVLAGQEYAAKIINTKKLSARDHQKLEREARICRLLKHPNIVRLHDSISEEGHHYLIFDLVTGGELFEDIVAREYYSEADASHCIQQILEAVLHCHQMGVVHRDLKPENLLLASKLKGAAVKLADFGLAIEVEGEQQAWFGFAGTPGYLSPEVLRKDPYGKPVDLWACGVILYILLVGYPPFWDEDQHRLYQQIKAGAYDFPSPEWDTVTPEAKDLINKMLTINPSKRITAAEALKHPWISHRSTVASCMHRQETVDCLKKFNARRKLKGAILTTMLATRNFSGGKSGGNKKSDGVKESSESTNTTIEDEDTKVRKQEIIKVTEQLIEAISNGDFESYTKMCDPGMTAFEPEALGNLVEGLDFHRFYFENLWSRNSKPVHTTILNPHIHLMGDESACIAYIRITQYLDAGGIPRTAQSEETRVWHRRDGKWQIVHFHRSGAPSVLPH
UniProt Q13555: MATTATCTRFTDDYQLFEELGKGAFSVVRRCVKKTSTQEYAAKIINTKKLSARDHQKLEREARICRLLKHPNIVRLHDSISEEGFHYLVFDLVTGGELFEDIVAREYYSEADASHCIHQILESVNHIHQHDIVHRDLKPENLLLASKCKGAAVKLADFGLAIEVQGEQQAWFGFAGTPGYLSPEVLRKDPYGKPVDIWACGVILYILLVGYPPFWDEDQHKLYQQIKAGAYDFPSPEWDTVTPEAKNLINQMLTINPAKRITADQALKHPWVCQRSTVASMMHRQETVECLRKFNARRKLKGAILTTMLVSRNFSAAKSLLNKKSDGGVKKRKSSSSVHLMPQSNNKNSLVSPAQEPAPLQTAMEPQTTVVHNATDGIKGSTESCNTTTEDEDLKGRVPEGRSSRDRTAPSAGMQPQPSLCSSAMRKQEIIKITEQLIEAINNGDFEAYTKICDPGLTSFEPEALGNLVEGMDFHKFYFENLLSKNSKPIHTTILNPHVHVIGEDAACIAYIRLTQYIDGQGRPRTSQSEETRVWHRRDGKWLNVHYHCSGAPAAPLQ
UniProt Q15131: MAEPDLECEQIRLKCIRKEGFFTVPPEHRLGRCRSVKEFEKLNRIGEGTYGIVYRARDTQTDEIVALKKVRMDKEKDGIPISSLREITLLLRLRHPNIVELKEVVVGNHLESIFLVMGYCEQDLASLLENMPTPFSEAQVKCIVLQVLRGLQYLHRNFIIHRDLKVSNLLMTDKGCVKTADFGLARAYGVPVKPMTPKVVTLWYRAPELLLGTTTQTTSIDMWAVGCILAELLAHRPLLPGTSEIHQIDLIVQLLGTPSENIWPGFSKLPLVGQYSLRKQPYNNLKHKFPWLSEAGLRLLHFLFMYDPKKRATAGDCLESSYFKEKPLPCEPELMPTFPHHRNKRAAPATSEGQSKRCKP
UniProt Q00526: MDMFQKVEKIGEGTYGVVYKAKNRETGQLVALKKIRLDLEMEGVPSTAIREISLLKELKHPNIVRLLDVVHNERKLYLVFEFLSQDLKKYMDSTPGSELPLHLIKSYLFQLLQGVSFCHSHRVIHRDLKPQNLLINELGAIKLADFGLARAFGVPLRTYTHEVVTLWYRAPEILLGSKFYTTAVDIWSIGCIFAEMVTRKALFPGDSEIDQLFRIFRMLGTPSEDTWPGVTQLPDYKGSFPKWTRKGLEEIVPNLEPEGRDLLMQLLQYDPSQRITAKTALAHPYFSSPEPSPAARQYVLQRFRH
UniProt P11802: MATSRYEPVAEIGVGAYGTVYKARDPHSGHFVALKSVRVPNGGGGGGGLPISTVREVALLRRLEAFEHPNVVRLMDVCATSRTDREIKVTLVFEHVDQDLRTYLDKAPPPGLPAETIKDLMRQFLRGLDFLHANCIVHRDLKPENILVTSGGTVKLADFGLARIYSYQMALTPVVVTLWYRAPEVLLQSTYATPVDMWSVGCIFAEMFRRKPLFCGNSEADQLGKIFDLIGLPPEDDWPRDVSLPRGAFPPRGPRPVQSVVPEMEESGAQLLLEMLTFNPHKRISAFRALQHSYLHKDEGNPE
UniProt Q00535, whole entry, looked up: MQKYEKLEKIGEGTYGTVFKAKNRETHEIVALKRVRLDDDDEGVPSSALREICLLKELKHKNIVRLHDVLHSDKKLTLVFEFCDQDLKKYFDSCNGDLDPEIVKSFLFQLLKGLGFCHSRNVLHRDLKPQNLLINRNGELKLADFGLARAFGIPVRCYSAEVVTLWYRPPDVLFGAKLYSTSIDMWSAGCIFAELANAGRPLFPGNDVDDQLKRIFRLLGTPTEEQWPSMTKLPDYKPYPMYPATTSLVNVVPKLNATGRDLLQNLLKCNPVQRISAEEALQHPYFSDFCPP
UniProt Q00534, whole entry: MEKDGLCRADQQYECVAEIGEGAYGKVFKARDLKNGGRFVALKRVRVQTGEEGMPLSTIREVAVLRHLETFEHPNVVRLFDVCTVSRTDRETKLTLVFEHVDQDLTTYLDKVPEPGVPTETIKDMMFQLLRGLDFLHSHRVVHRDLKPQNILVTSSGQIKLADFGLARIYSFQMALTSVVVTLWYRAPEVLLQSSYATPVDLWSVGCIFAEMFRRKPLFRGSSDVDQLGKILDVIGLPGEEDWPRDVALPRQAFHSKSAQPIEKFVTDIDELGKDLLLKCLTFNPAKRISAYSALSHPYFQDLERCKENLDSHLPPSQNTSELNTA

Key:
Experiment in all cases: kinase-Nluc reporter destabilization hit call (1 = scored as downregulated) (binary); higher = compound decreases kinase abundance
Conditions in all cases: K562; 2-18 h
[1] = target: ABL1 (UniProt P00519)
[2] = target: AKT1 (UniProt P31749)
[3] = target: ALK (UniProt Q9UM73)
[4] = target: ARAF (UniProt P10398)
[5] = target: AURKA (UniProt O14965)
[6] = target: AURKB (UniProt Q96GD4)
[7] = target: AURKC (UniProt Q9UQB9)
[8] = target: BLK (UniProt P51451)
[9] = target: BMX (UniProt P51813)
[10] = target: BRAF (UniProt P15056)
[11] = test system: BRAF_V600E
[12] = target: BTK (UniProt Q06187)
[13] = target: CAMK2A (UniProt Q9UQM7)
[14] = target: CAMK2G (UniProt Q13555)
[15] = target: CDK10 (UniProt Q15131)
[16] = target: CDK2 (UniProt P24941)
[17] = target: CDK3 (UniProt Q00526)
[18] = target: CDK4 (UniProt P11802)
[19] = target: CDK5 (UniProt Q00535)
[20] = target: CDK6 (UniProt Q00534)

Measured: kinase-Nluc reporter destabilization hit call

C[C@]1(O)C[C@@](N)(c2ccc(-c3nc4n(c3-c3ccccc3)COc3ccncc3-4)cc2)C1 [TAS-117 (hydrochloride)] (10 µM)
inactive: [1] 0 | [2] 0 | [3] 0 | [4] 0 | [5] 0 | [6] 0 | [7] 0 | [8] 0 | [9] 0 | [10] 0 | [11] 0 | [12] 0 | [13] 0 | [14] 0 | [15] 0 | [16] 0 | [17] 0 | [18] 0 | [19] 0 | [20] 0

O=c1[nH]nc(Sc2ncc([N+](=O)[O-])s2)n1-c1ccc2c(c1)OCCO2 (2.5 µM)
inactive: [1] 0 | [2] 0 | [3] 0 | [4] 0 | [5] 0 | [6] 0 | [7] 0 | [8] 0 | [9] 0 | [10] 0 | [11] 0 | [12] 0 | [13] 0 | [14] 0 | [15] 0 | [16] 0 | [17] 0 | [18] 0 | [19] 0 | [20] 0

O=c1cc(-c2ccc(O)cc2)oc2cc(O)c([C@@H]3O[C@H](CO)[C@@H](O)[C@H](O)[C@H]3O)c(O)c12 [Isovitexin] (10 µM)
inactive: [1] 0 | [2] 0 | [3] 0 | [4] 0 | [5] 0 | [6] 0 | [7] 0 | [8] 0 | [9] 0 | [10] 0 | [11] 0 | [12] 0 | [13] 0 | [14] 0 | [15] 0 | [16] 0 | [17] 0 | [18] 0 | [19] 0 | [20] 0

COc1cc2nccc(Oc3ccc(NC(=O)Nc4ccc(F)cc4F)c(F)c3)c2cc1OC (10 µM)
inactive: [1] 0 | [2] 0 | [3] 0 | [4] 0 | [5] 0 | [6] 0 | [7] 0 | [8] 0 | [9] 0 | [10] 0 | [11] 0 | [12] 0 | [13] 0 | [14] 0 | [15] 0 | [16] 0 | [17] 0 | [18] 0 | [19] 0 | [20] 0

C=C[C@H]1[C@H](O[C@@H]2O[C@H](CO)[C@@H](O)[C@H](O)[C@H]2O)OC=C(C(=O)OC)[C@H]1CCOC(=O)c1cc(O)c(O)c(O)c1 [Cornuside] (10 µM)
inactive: [1] 0 | [2] 0 | [3] 0 | [4] 0 | [5] 0 | [6] 0 | [7] 0 | [8] 0 | [9] 0 | [10] 0 | [11] 0 | [12] 0 | [13] 0 | [14] 0 | [15] 0 | [16] 0 | [17] 0 | [18] 0 | [19] 0 | [20] 0

Cn1cc(-c2ccc3nnc(Sc4ccc5nn(C)cc5c4)n3n2)cn1 [c-Met inhibitor 1] (10 µM)
inactive: [1] 0 | [2] 0 | [3] 0 | [4] 0 | [5] 0 | [6] 0 | [7] 0 | [8] 0 | [9] 0 | [10] 0 | [11] 0 | [12] 0 | [13] 0 | [14] 0 | [15] 0 | [16] 0 | [17] 0 | [18] 0 | [19] 0 | [20] 0

COc1cc(/C=C/c2ccc(NC(=O)/C=C/c3cc(OC)c(OC)c(OC)c3)cc2)cc(OC)c1 (2.5 µM)
inactive: [1] 0 | [2] 0 | [3] 0 | [4] 0 | [5] 0 | [6] 0 | [7] 0 | [8] 0 | [9] 0 | [10] 0 | [11] 0 | [12] 0 | [13] 0 | [14] 0 | [15] 0 | [16] 0 | [17] 0 | [18] 0 | [19] 0 | [20] 0

C[C@@H](N)COc1ccc(-c2cnc3ccc(N[C@H](C)c4cccc(F)c4)nn23)cc1 [Taletrectinib] (2.5 µM)
inactive: [1] 0 | [2] 0 | [3] 0 | [4] 0 | [5] 0 | [6] 0 | [7] 0 | [8] 0 | [9] 0 | [10] 0 | [11] 0 | [12] 0 | [13] 0 | [14] 0 | [15] 0 | [16] 0 | [17] 0 | [18] 0 | [19] 0 | [20] 0

C=CC(=O)N1CCC[C@@H](n2c(=O)n(-c3ccc(Oc4ccccc4)cc3)c3c(N)nccc32)C1 [Tolebrutinib] (10 µM)
inactive: [1] 0 | [2] 0 | [3] 0 | [4] 0 | [5] 0 | [6] 0 | [7] 0 | [8] 0 | [9] 0 | [10] 0 | [11] 0 | [12] 0 | [13] 0 | [14] 0 | [15] 0 | [16] 0 | [17] 0 | [18] 0 | [19] 0 | [20] 0
